Source: article PMC7901196
These are yes or no findings as the source states them, for the method shown. Binding seen in cells or lysates may run through a third protein. A yes stands for co-enrichment or nearness to the bait. Other partners may have been found.

Chains of the proteins cited; added tags and fusions are not shown.
UniProt O97758: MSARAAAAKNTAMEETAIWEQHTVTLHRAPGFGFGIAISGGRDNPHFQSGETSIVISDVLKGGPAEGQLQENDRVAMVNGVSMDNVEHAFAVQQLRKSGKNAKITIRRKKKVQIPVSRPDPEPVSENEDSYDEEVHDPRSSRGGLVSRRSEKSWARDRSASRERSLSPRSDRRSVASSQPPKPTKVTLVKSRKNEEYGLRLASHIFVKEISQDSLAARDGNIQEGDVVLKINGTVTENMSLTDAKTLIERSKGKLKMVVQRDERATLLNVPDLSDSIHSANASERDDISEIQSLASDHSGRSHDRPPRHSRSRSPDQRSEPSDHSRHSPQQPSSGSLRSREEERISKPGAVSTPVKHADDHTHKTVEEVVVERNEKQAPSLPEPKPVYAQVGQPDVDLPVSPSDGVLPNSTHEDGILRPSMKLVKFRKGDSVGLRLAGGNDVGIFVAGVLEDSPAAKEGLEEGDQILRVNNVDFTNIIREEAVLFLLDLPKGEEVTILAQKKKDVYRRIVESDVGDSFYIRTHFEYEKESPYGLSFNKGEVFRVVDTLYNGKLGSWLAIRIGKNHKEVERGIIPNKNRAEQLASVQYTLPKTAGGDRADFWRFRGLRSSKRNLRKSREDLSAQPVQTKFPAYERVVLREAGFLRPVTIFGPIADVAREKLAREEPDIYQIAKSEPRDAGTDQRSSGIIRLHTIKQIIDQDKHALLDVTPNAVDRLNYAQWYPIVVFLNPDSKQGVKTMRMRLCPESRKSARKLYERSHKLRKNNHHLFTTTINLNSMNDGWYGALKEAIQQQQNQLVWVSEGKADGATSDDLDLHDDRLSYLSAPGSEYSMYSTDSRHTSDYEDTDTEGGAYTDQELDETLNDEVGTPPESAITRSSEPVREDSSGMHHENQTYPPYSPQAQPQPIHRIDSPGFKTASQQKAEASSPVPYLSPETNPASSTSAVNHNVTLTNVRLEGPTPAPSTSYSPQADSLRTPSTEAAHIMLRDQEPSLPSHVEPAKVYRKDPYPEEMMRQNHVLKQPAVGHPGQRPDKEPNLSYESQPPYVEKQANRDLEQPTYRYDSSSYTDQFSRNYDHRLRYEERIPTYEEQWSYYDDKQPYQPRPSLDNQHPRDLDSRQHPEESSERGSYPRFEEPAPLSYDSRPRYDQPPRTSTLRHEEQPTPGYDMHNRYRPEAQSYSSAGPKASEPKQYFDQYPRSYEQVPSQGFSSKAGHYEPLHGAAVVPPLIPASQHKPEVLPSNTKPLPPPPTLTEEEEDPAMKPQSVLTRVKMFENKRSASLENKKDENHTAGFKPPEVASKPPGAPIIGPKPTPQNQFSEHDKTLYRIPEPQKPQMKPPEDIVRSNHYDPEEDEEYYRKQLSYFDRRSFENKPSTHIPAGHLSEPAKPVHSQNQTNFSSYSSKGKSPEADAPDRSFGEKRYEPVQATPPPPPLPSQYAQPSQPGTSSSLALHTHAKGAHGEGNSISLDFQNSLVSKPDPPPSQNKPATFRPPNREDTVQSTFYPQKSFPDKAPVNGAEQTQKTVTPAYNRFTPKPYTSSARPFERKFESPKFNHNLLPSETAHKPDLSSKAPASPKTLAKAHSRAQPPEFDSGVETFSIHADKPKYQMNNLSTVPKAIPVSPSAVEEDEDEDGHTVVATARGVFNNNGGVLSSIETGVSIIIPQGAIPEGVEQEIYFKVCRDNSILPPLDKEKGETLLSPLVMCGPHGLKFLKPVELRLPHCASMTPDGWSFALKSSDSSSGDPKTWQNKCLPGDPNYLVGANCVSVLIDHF
UniProt A0A8C0NGY6: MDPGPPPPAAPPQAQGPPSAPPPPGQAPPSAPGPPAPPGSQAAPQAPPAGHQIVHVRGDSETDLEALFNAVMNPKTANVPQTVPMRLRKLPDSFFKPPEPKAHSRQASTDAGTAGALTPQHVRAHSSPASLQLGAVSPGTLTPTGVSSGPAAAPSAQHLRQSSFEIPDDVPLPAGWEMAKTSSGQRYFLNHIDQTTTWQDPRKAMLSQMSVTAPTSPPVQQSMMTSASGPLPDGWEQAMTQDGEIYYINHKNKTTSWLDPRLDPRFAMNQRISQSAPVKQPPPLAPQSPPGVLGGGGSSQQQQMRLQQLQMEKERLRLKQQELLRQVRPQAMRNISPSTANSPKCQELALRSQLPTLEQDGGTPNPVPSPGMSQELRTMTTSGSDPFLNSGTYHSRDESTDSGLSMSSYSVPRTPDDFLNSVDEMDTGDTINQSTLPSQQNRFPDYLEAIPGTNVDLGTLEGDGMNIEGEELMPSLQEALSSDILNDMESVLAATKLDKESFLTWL

T1: claudin-2 (dog (endogenous in MDCK-II)) (UniProt Q95KM6)
T1 sequence: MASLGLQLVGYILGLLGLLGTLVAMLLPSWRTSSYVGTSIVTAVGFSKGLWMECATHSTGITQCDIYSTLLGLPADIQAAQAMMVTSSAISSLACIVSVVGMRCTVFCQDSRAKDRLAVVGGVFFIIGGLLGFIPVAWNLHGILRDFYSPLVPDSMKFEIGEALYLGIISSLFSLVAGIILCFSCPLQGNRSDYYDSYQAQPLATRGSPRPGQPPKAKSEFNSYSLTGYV

B1: caveolin-1 (protein, UniProt P33724 1-178)
chain: MSGGKYVDSEGHLYTVPIREQGNIYKPNNKAMAEEMSEKQVYDAHTKEIDLVNRDPKHLNDDVVKIDFEDVIAEPEGTHSFDGIWKASFTTFTVTKYWFYRLLSALFGIPMALIWGIYFAILSFLHIWAVVPCIKSFLIEIQCISRVYSIYVHTFCDPFFEAVGKIFSNIRINMQKET
B2: ZO-3 (protein, UniProt O62683 1-898)
chain: MEELTIWEQHTATLCRDPRRGFGIAISGGRDRASGSVVVSDVVPGGPADGRLQTGDHVVMVNGVSMESVTSTFAIQILKTCTKLANITVKRPRKIQLPATKAGTSGRGRQGLEEEADCGQGYDGDTSSGSGRSWDKRSRRARTGRRNQAGSRGRRSPGGNSEANGLALVSGFKRLPRQDVHMRPVKSVLVRRTESEEFGVTLGSQIFIKHITDSGLAARNRGLQEGDLILQINGVSSENLSLSDTRRLIEKSEGKLTLLVLRDRGQFLVNIPPAVSDSDSDSSFLDDISALGSELSQAVPSHVPPPPPHAQRSLDSDGTDSPRDSPPLRRENSLDSRTISEPDAPRHSSYDIYRVPSSQSAEDRGYSPDSRVVRFHKGTTIGLRLAGGNDVGIFVSGVQEGSPADGQGIQEGDQILQVNDVPFRNLTREEAVQFLVALPPGEEVELVTQRNEDIFRKMVQSRVGDSFYIRTHFELEASPPSGLGFTRGDVFHVLDTLCPGPGPSGARGTHWLAVRMGRDLREQERGIIPNQSRAEQLASLESAQRAVGAGPGASVGSSARAEFWRLRGLRRGAKKSTQRSREDLSALTRQGHYPPYERVVLREASFKRPVVILGPVADIAMQKLTAEMPDQFGIADSVLRTDSPSKIIKLDTVRVIAEKNKHALLDVTPSAVERLNYVQYYPIVVFCAPESRAALKALRQWLAPASRRSARRLYAQAQKLRKHSEHLFTATIPLRGTSDTWYQELKAVVREQQTRPIWTAEDQLDNSSEDNLELPHRGLADSSADLSCDSRVNSDYETDGEGYTDGEGYTDVDEGPPAPALARSSEPVLEEEPRSPRDHGRASGARGAQVDRHPYHSQGRQDSMRTYGQEALKKKFTRARDVESSDEDGYDWGPATDL

What follows are molecules tested against T1, claudin-2 (dog (endogenous in MDCK-II)) (assay: affinity purification with mass spectrometry; immunoprecipitation with anti-claudin-2 antibody from MDCK-II cell lysate, mass spectrometry; MDCKII-TALEN (claudin-2 knockout) lysate as negative control).

| binding | Molecule |
| --- | --- |
| binds | ZO-1 (from UniProt O97758 1-1769) |
| binds | YES-associated protein (YAP) (from UniProt A0A8C0NGY6 1-506) |
| binds | Ubiquitin carboxyl-terminal hydrolase (dog (endogenous in MDCK-II)) |
| binds | B1 |
| binds | B2 |
